In all, about 400,000 compounds went through this assay and about 3,700 (0.93%) were called active. Inconclusive means that the source gave no clear call. Such entries were picked first, then a sample of the others. Calls follow the shape of the dose curve; as a rule, active = well fitted inhibition curve with a large enough effect; inconclusive = small, poorly fitted or top-dose-only effect, or another doubt; inactive = no such curve, though single readings can be large or run the other way. Where the call is inconclusive, the potency comes from a doubtful curve fit.
What follows are molecules tested against Vitamin D3 receptor (Homo sapiens) (UniProt P11473) (assay: Inhibitors of the vitamin D receptor (VDR): qHTS). Details: VDR-SRC2-3 peptide fluorescence polarization, 2 h; max response, negative = inhibition: active compounds read low.
How it was run: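 Fluorescence polarization assay of small-molecule disruption of VDR binding to coregulator peptide SRC2-3. Compounds and controls pin-transferred, then read after 2 h incubation at ambient room temperature.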
% is scaled to controls: 0 for no effect and ±100 for the full control effect; potency is read from the fitted curve at half-maximal effect.

Amino acid sequences for entries named in this document (tags omitted).
UniProt P11473, whole entry, looked up: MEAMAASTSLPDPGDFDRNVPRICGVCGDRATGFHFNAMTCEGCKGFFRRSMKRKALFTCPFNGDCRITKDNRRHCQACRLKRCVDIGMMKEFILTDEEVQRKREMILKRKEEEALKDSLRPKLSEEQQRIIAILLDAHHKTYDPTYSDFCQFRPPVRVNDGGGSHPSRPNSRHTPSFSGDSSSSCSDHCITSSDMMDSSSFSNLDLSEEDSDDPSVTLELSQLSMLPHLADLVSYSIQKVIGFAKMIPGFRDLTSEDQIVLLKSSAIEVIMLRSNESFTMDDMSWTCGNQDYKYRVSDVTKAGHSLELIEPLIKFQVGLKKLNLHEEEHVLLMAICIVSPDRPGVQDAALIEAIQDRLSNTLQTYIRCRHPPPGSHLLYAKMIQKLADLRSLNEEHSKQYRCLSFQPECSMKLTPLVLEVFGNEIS

SMILES	Potency	max response, negative = inhibition
COc1ccc(Cl)cc1C=CC=Nc1ccccc1O	active: 89.1 µM	
CN1CCc2c(sc(/N=C/c3ccco3)c2C(N)=O)C1	inconclusive: 50.1 µM [inhibitor, partial curve, poor fit]	
Cc1ccc(Nc2cc(C(=O)NCCc3ccccc3)c3ccccc3n2)c(C)c1		inactive: -1.23%
Nc1nc(-c2cccc(F)c2)cs1	active: 35.5 µM	
O=C(CCN1C(=O)/C(=C/c2ccccc2)SC1=S)NNC(=O)c1cccnc1		inactive: 3.89%
Cc1cc(OCC(=O)NC2CCCCC2)ccc1Cl	inconclusive: 89.1 µM [inhibitor, single point]	
CCN(Cc1ccccc1)C(=O)CSc1nc(C)cc(C)c1C#N	inconclusive: 56.2 µM [inhibitor, partial curve, poor fit]	
COC(=O)c1sc2ncccc2c1OCc1cccc(Cl)c1		inactive: -7.35%
Cc1cc(C)n(CCNC(=O)CC2C(=O)NCCN2Cc2ccc(C)o2)n1 (configuration not stated)	inconclusive: 79.4 µM [inhibitor, partial curve, poor fit]	
CC[C@H](C)[C@H](NC(=O)[C@@H](NC(=O)[C@@H](NC(=O)[C@H](CCC(=O)O)NC(=O)[C@H](CCC(=O)O)NC(=O)[C@H](CCC(=O)O)NC(=O)[C@H](C)NC(=O)[C@@H](N)CC(C)C)C(C)C)C(C)C)C(=O)N[C@@H](CCCNC(=N)N)C(=O)N[C@@H](CO)C(=O)N[C@@H](C)C(=O)N[C@@H](CC(N)=O)C(=O)N[C@@H](Cc1ccccc1)C(=O)N[C@H](C(=O)N[C@@H](CC(=O)O)C(=O)N[C@@H](CC(N)=O)C(=O)O)[C@@H](C)O		inactive: 17.7%
Cc1ccc(C(=O)O)cc1NC(=O)c1nsc2ccccc12		inactive: 8.1%
Cc1ccc(F)cc1NC(=O)CSc1nc(-c2cccs2)cc(C(F)(F)F)n1	inconclusive: 100 µM [inhibitor, single point]	
COC(=O)c1cc(NC(=O)c2cc(C(C)(C)C)nn2Cc2ccc(F)cc2)ccc1N1CCOCC1		inactive: 8.35%
O=C(CCCC(=O)c1ccccc1)NCc1ccccc1		inactive: -20.6%
O=C1CNC(=S)N1Cc1ccc(F)cc1	inconclusive: 100 µM [inhibitor, single point]	
COc1ccc(N2CCN(C(=O)CNC(=O)c3ccc4ccccc4c3)CC2)cc1	inconclusive: 10 µM [inhibitor, partial curve, poor fit]	
COC(=O)c1ccc(CCc2cc(O)ccc2O)cc1	inconclusive: 44.7 µM [inhibitor, partial curve, poor fit]	
COc1ccc(CNC(=O)CC2C[C@H](C(=O)N3CCOCC3)[C@@]3(CCC4CCCC4)c4[nH]c5ccccc5c4CCN3C2=O)cc1OC (some centres not stated)		inactive: -25.3%
Oc1ccc2ccccc2c1C=Nc1ccccc1Br		inactive: 5.86%
COc1ccc2nc3cc(Cl)ccc3c(Nc3ccc(O)c(CN4CCN(C)CC4)c3)c2c1	inconclusive: 70.8 µM [inhibitor, partial curve, poor fit]	
Clc1cc(Cl)c(OCC#CI)cc1Cl	active: 2.82 µM	

An excerpt of these results, with bars between the fields:
SMILES | Potency | max response, negative = inhibition
Cc1ccc(F)cc1NC(=O)CSc1nc(-c2cccs2)cc(C(F)(F)F)n1 | inconclusive: 100 µM [inhibitor, single point] | 
COC(=O)c1cc(NC(=O)c2cc(C(C)(C)C)nn2Cc2ccc(F)cc2)ccc1N1CCOCC1 |  | inactive: 8.35%

Remaining list, next part:

SMILES	Potency	max response, negative = inhibition
CN(c1ccccc1C(=O)N1CCc2ccccc2C1)S(C)(=O)=O	inconclusive: 89.1 µM [inhibitor, single point]	
Cc1cccc2sc(NC(=O)CCNS(=O)(=O)c3cccc4nonc34)nc12	inconclusive: 5.62 µM [inhibitor, partial curve, poor fit]	
CNC(=S)N/N=C/c1c2ccccc2c(Cl)c2ccccc12	inconclusive: 89.1 µM [inhibitor, single point]	
CCOc1ccc(S(=O)(=O)NCCCn2ccnc2)cc1		inactive: -6.99%
CCCCCCOC(=O)c1ccccc1NC(=O)/C=C/C(=O)O	inconclusive: 56.2 µM [inhibitor, partial curve, poor fit]	
Cc1ccc(C(=O)NCC(=O)Nc2cc(C)ccn2)cc1	inconclusive: 79.4 µM [inhibitor, single point]	
CC(C)(CCC(=S)N1CCOCC1)C1CCCCC1	inconclusive: 70.8 µM [inhibitor, partial curve, poor fit]	
COc1ccc(/[N+]([O-])=C/c2ccco2)cc1	inconclusive: 79.4 µM [inhibitor, partial curve, poor fit]	
NNC(=O)c1sc2cc(C(F)(F)F)cnc2c1-c1cccs1	inconclusive: 100 µM [inhibitor, single point]	
COC(=O)c1scc(-c2ccc(C)cc2)c1S(=O)(=O)N1CCN(c2ccc(F)cc2)CC1		inactive: 2.81%
O=C(/C=C/c1ccccc1)OCN1C(=O)c2ccccc2C1=O	inconclusive: 8.91 µM [inhibitor, partial curve, poor fit]	
O=C(COc1cccc2ccccc12)N/N=C/c1ccco1		inactive: 1.25%
Cc1ccc(CC(=O)N(C)CC(=O)N(CC(C)C)c2c(N)n(CC(C)C)c(=O)[nH]c2=O)cc1C	inconclusive: 89.1 µM [inhibitor, single point]	
Cc1cc2nc(C)c(=O)n(C)c2cc1C	inconclusive: 79.4 µM [inhibitor, partial curve, poor fit]	
O=C(CCN1CCCC1)c1cccs1	inconclusive: 79.4 µM [inhibitor, partial curve]	
CCOc1ccccc1NC1=C(Cl)C(=O)N(c2ccc(OC)cc2)C1=O	inconclusive: 89.1 µM [inhibitor, single point]	
O=c1oc2cc(Oc3c([N+](=O)[O-])cc(C(F)(F)F)cc3[N+](=O)[O-])ccc2c2c1CCCC2	inconclusive: 56.2 µM [inhibitor, partial curve, poor fit]	
COc1ccc(CCNC(=O)CCNC(=O)c2ccc([N+](=O)[O-])cc2)cc1		inactive: -6.41%
CC1(C)Cc2c(C#N)c(NCCN3CCOCC3)nc(-c3ccco3)c2CO1		inactive: -20.2%
CCCCC(=O)N1CCc2cc(OC)c(OC)cc2C1COc1ccc(C(=O)OCC)cc1 (configuration not stated)		inactive: 9.15%
Cc1cccc(-n2c(Cc3cc(=O)[nH]c(=O)[nH]3)nnc2SCC(=O)Nc2cccc(C(F)(F)F)c2)c1	inconclusive: 2.82 µM [inhibitor, full curve, poor fit]	

From PubChem BioAssay AID504847 (National Center for Advancing Translational Sciences (NCATS), 2011)
